PubChem BioAssay AID602196 – INSERM – 2012

Screen: 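Knock-downs that protect lung cancer cells from cisplatin or sensitise them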
Cells: human A549 lung cancer cells
Reagent: siRNA pair against human genes
Time to read-out: 48 h transfection before cisplatin; time from cisplatin to read-out not stated
Treatment: cisplatin at a dose killing half of control-siRNA cells; exact dose and duration not given
Detection: 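Cisplatin cell death as a shift from the 50% death seen with control siRNA; siRNAs toxic or growth-blocking alone scored 0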
Scale: two-siRNA summed score (-2 to +2): higher = both siRNAs protect from cisplatin killing; -2 means both sensitise
Active means: 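siRNAs harmful alone (LDH or WST-1) get 0; others get +1 for less and -1 for more cisplatin killing; genes are active when the two siRNAs give the same sign, summing to ±2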
Meaning of the calls: active = both siRNAs shift cisplatin killing the same way; inactive = no consistent shift, or siRNA harmful alone
The deposit covers about 23,000 reagents; below is a random part of them. 455 of them (2%) count as active. 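Active includes both protection and sensitisation; some change values fall well beyond the stated -50 to +50 range.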 Entries without a mark were called inactive. Not all columns of the deposit are shown. Not stated in the record: the amount of reagent.

GSDMB → two-siRNA summed score (-2 to +2) = 0
LORICRIN → two-siRNA summed score (-2 to +2) = 0
SPACA6 → two-siRNA summed score (-2 to +2) = 0
GRIP1 → two-siRNA summed score (-2 to +2) = 0
CBFA2T2 → two-siRNA summed score (-2 to +2) = 0
CMTM8 → two-siRNA summed score (-2 to +2) = 0
LOC401125 → two-siRNA summed score (-2 to +2) = 0
DOK3 → two-siRNA summed score (-2 to +2) = 0
FOXD4 → two-siRNA summed score (-2 to +2) = 1
LINC02911 → two-siRNA summed score (-2 to +2) = 0
LOC392670 → two-siRNA summed score (-2 to +2) = 0
LOC389147 → two-siRNA summed score (-2 to +2) = 1

An excerpt of the results above, as a working copy:
GRIP1 → two-siRNA summed score (-2 to +2) = 0
CBFA2T2 → two-siRNA summed score (-2 to +2) = 0
